Results taken from PubChem BioAssay (NCATS).
The list shows a part of the results. The main result of the screen is listed elsewhere. These columns were measured beside it and carry no call. Most of these compounds were active or inconclusive in the main read-out, so they are no random draw. Words in brackets tell the shape of the fitted curve; partial curves, single points and poor fits give uncertain potencies.

assay: S16 Schwann cell PMP22 intronic element beta-lactamase assay (AID 624044); conditions: S16 rat Schwann cells, PMP22 element beta-lactamase FRET, 24 h; measured here: 460 nm blue channel
Summary of the method: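 Beta-lactamase reporter under a PMP22 intronic regulatory element in stable S16 rat Schwann cells; 24 h compound exposure. 460 nm blue signal normalized between DMSO (0%) and potassium clavulanate, with 535 nm FRET tracking viability; curves classed by r2 and response.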

| SMILES | AC50 |
| --- | --- |
| O=C(NC1CCN(CCc2c[nH]c3ccccc23)CC1)c1ccccc1 | 25.1 µM [rising, single point] |
| CCOc1ccc(N=Nc2ccc(N)cc2N)cc1 | 8.91 µM [falling, partial curve, poor fit] |
| CC1=C(/C=C/C(C)=C/C=C/C(C)=C/C=C/C=C(C)/C=C/C=C(C)/C=C/C2=C(C)CCCC2(C)C)C(C)(C)CCC1 | 12.6 µM [rising, partial curve] |
| C[S+](CC[C@H](N)C(=O)O)C[C@H]1O[C@@H](n2cnc3c(N)ncnc32)[C@H](O)[C@@H]1O (some centres not stated) | 14.1 µM [falling, single point] |
| CC(=O)Nc1ccc(NC(=S)NC(=O)c2ccc(C(C)(C)C)cc2)cc1 | 5.62 µM [falling, full curve] |
| Nc1ccc2cc3ccc(N)cc3nc2c1 | 12.6 µM [falling, full curve, poor fit] |
| COc1cc(NS(=O)(=O)c2ccc(N)cc2)ncn1 | 4.77 µM [falling, partial curve] |
| CC(C)(C)CC(C)(C)c1cc(Cc2cc(C(C)(C)CC(C)(C)C)cc(-n3nc4ccccc4n3)c2O)c(O)c(-n2nc3ccccc3n2)c1 | 0.316 µM [falling, full curve, poor fit] |
| CC1(C)OC2CC(=O)OC[C@@]23C1CC(=O)[C@]1(C)C3CC[C@@]2(C)C(c3ccoc3)OC(=O)C3O[C@@]321 (some centres not stated) | 3.55 µM [falling, full curve, poor fit] |
| Clc1cc(Cl)c(OCC#CI)cc1Cl | 25.1 µM [falling, single point] |
| CC(C)COC(=O)OCN1C(=O)CN(CCN2CC(=O)N(COC(=O)OCC(C)C)C(=O)C2)CC1=O | 17.8 µM [falling, single point] |
| N=C(N)c1ccc(/C=C/c2ccc(C(=N)N)cc2O)cc1 | 12.6 µM [falling, single point] |
| Nc1nc(Cl)nc2c1ncn2[C@@H]1O[C@H](CO)[C@H](O)C1F (some centres not stated) | 5.62 µM [falling, partial curve] |
| C=C1NC(=O)c2cc(CN(C)c3ccc(C(=O)N[C@@H](CCC(=O)O)C(=O)O)s3)ccc2N1 | 0.00631 µM [falling, full curve] |
| COC(=O)[C@H]1[C@H]2C[C@@H]3c4[nH]c5ccccc5c4CCN3C[C@H]2C[C@@H](OC(=O)c2cc(OC)c(OC)c(OC)c2)[C@@H]1OC | 11.2 µM [falling, full curve] |
| COc1cc(/C=C2\CCC/C(=C\c3ccc(O)c(OC)c3)C2=O)ccc1O | 25.1 µM [falling, partial curve] |
| CCCCCCCCCCCCCC(=O)OCC(COP(=O)([O-])OCC[N+](C)(C)C)OC(=O)CCCCCCCCCCCCC (configuration not stated) | 1.12 µM [falling, full curve, poor fit] |
| OCCOC[C@H]1O[C@H](OCCO)[C@H](OCCO)[C@@H](OCCO)[C@@H]1OCCO (tested in a mixture with another compound) | 12.6 µM [falling, full curve, poor fit] |
| CC(C)C[C@@H](NC(=O)[C@H](Cc1ccccc1)NC(=O)c1cnccn1)B(O)O | 0.00794 µM [falling, full curve] |

Gathered by group: the compounds so far containing four or more nitrogen atoms.

| SMILES | AC50 |
| --- | --- |
| CCOc1ccc(N=Nc2ccc(N)cc2N)cc1 | 8.91 µM [falling, partial curve, poor fit] |
| C[S+](CC[C@H](N)C(=O)O)C[C@H]1O[C@@H](n2cnc3c(N)ncnc32)[C@H](O)[C@@H]1O (some centres not stated) | 14.1 µM [falling, single point] |
| COc1cc(NS(=O)(=O)c2ccc(N)cc2)ncn1 | 4.77 µM [falling, partial curve] |
| CC(C)(C)CC(C)(C)c1cc(Cc2cc(C(C)(C)CC(C)(C)C)cc(-n3nc4ccccc4n3)c2O)c(O)c(-n2nc3ccccc3n2)c1 | 0.316 µM [falling, full curve, poor fit] |
| CC(C)COC(=O)OCN1C(=O)CN(CCN2CC(=O)N(COC(=O)OCC(C)C)C(=O)C2)CC1=O | 17.8 µM [falling, single point] |
| N=C(N)c1ccc(/C=C/c2ccc(C(=N)N)cc2O)cc1 | 12.6 µM [falling, single point] |
| Nc1nc(Cl)nc2c1ncn2[C@@H]1O[C@H](CO)[C@H](O)C1F (some centres not stated) | 5.62 µM [falling, partial curve] |
| C=C1NC(=O)c2cc(CN(C)c3ccc(C(=O)N[C@@H](CCC(=O)O)C(=O)O)s3)ccc2N1 | 0.00631 µM [falling, full curve] |
| CC(C)C[C@@H](NC(=O)[C@H](Cc1ccccc1)NC(=O)c1cnccn1)B(O)O | 0.00794 µM [falling, full curve] |

(more compounds)

| SMILES | AC50 |
| --- | --- |
| CC1C(=O)CC2C3(C)CCC2(C(C)C(=O)O)C(=O)C13 (configuration not stated) | 14.1 µM [rising, single point] |
| COC(C(=O)C(O)C(C)O)C1Cc2cc3cc(OC4CC(OC5CC(O)C(O)C(C)O5)C(O)C(C)O4)c(C)c(O)c3c(O)c2C(=O)C1OC1CC(OC2CC(OC3CC(C)(O)C(O)C(C)O3)C(O)C(C)O2)C(O)C(C)O1 (configuration not stated) | 0.501 µM [falling, full curve] |
| CC(N)C(=O)NCC(=O)NC1CSSCC(C(=O)O)NC(=O)C(CO)NC(=O)C(C(C)O)NC(=O)C(Cc2ccccc2)NC(=O)C(C(C)O)NC(=O)C(CCCCN)NC(=O)C(Cc2c[nH]c3ccccc23)NC(=O)C(Cc2ccccc2)NC(=O)C(Cc2ccccc2)NC(=O)C(CC(N)=O)NC(=O)C(CCCCN)NC1=O (configuration not stated) | 14.1 µM [falling, single point] |
| O=C(O)CCC(=O)Nc1ccc(S(=O)(=O)Nc2nccs2)cc1 | 10.7 µM [falling, single point] |
| COc1ccc([C@@H]2CC(=O)c3c(O)cc(O[C@H]4O[C@@H](CO[C@H]5O[C@@H](C)[C@@H](O)[C@@H](O)[C@@H]5O)[C@@H](O)[C@@H](O)[C@@H]4O)cc3O2)cc1O | 0.00477 µM [falling, full curve, poor fit] |
| CCN(CC)CCNC(=O)c1cc(S(C)(=O)=O)ccc1OC | 9.51 µM [falling, single point] |
| O=C(Oc1cccc2cccnc12)c1ccccc1 | 3.98 µM [falling, partial curve, poor fit] |
| CNC1CCc2cc(OC)c(OC)c(OC)c2-c2ccc(OC)c(=O)cc21 (configuration not stated) | 0.224 µM [falling, full curve] |
| COC1C(OC(=O)/C=C/C=C/C=C/C=C/C(=O)O)CCC2(CO2)C1C1(C)OC1CC=C(C)C (configuration not stated) | 0.00446 µM [falling, full curve, poor fit] |
| CO/N=C(/C(=O)N[C@@H]1C(=O)N2C(C(=O)O)=C(CSc3nnnn3C)CS[C@H]12)c1csc(N)n1 | 25.1 µM [rising, single point] |
| CNC1(C)C2CCC(C2)C1(C)C (configuration not stated) | 14.1 µM [falling, partial curve, poor fit] |
| CN1CCC[C@@H]1Cc1c[nH]c2ccc(CCS(=O)(=O)c3ccccc3)cc12 | 15.8 µM [falling, partial curve, poor fit] |
| O=C1c2cccc3c2[C@@H](CCC3)CN1[C@@H]1CN2CCC1CC2 | 8.91 µM [falling, partial curve] |
| C/C1=C2N=C(/C=C3N=C(/C(C)=C4\[N-]C(C)(C5N=C1C(C)(CCC(=O)NCC(C)OP(=O)([O-])O[C@H]1C(O)C(n6cnc7cc(C)c(C)cc76)O[C@@H]1CO)C5CC(N)=O)C(C)(CC(N)=O)C4CCC(N)=O)C(C)(CC(N)=O)C\3CCC(N)=O)C(C)(C)C/2CCC(N)=O.[CH2-]C1OC(n2cnc3c(N)ncnc32)C(O)C1O.[Co] (some centres not stated) | 9.99 µM [falling, partial curve, poor fit] |
| C=C[C@H]1CN2CCC1C[C@H]2[C@H](O)c1ccnc2ccc(OC)cc12 (some centres not stated) | 7.07 µM [falling, partial curve] |
| C[C@H]1[C@H](NC(=O)/C(=N/OC(C)(C)C(=O)O)c2csc(N)n2)C(=O)N1S(=O)(=O)O (stereo in doubt) | 1.2 µM [falling, full curve, poor fit] |
| CCCCN(CCCC)CCCOC(=O)c1ccc(N)cc1 | 0.0268 µM [rising, full curve, poor fit] |
| CC(CSC(=O)c1ccccc1)C(=O)N1C[C@@H](Sc2ccccc2)C[C@H]1C(=O)O (some centres not stated) | 12.6 µM [falling, full curve] |
